Laboratory results published in patent publication US9376694B2, “Method for preparing optically active amino acid using cosubstrate shuttling of transaminase” (INDUSTRY-ACADEMIC COOPERATION FOUNDATION, YONSEI UNIVERSITY, priority 2012, dated 2016).
At least one compound was matched to its structure with a doubt left.

Columns and labels:
[1] = system: ω-transaminase derived from Paracoccus denitrificans (PdwTA); test: Substrate specificity of purified ω-transaminase for keto acids, PdwTA; format: biochemical; settings: purified enzyme (6 U/mL); 20 mM keto acid, 20 mM (S)-α-methylbenzylamine, pH 7.0, 37° C., 6 hours
Protocol: (§1) Reaction was conducted using the ω-transaminase purified in Example 3 and using various keto acids and amine as substrates as described in [Table 6]. After adding 10 μL of the purified enzyme (6 U/mL) to 100 μL of a mixture of 20 mM keto acid, 20 mM (S)-α-methylbenzylamine and 50 mM potassium phosphate (pH 7.0), reaction was conducted at 37° C. for 6 hours and the amount of produced acetophenone (deaminated ketone of (S)-α-methylbenzylamine) was measured. The result was compared with that of the ω-transaminase derived from Ochrobactrum anthropi. The result is shown in [Table 6].

[2] = system: ω-transaminase derived from Paracoccus denitrificans (PdwTA); test: Substrate specificity of purified ω-transaminase for keto acids in initial stage of reaction, PdwTA; format: biochemical; set-up: unit not given here; settings: purified enzyme (1 U/mL); 20 mM keto acid, 20 mM (S)-α-methylbenzylamine, pH 7.0, 37° C., 10 minutes
Protocol: as §1, with “7].” for “6].”, “(1” for “(6”, “10 minutes” for “6 hours”

## CC(=O)C(=O)O [Pyruvate]
[1]
  Concentration of acetophenone, PdwTA: 5.18 mM
[2]
  amount of produced acetophenone, PdwTA: 1.216
